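Human melanoma cell lines in 1,536-well plates were treated with two drugs together for 72 h, then fixed, stained and imaged. Values are the number of DAPI-stained nuclei as a percentage of the DMSO control: 100 is no effect, lower means fewer cells. Every drug was used at one fixed concentration, the lower of two screened (a fifth of the higher). These are primary screening values without error estimates.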
This is part of the screen, not chosen by result.
A dash means that no value is listed here.

Drugs:
KU-0063794, 20 nM: COc1ccc(-c2ccc3c(N4CCOCC4)nc(N4C[C@@H](C)O[C@@H](C)C4)nc3n2)cc1CO
SU6656, 400 nM: CN(C)S(=O)(=O)c1ccc2c(c1)/C(=C/c1cc3c([nH]1)CCCC3)C(=O)N2
VX-702, 400 nM: NC(=O)c1ccc(N(C(N)=O)c2c(F)cccc2F)nc1-c1ccc(F)cc1F
perifosine, 400 nM: CCCCCCCCCCCCCCCCCCOP(=O)([O-])OC1CC[N+](C)(C)CC1
docetaxel, 0.1 nM: CC(=O)O[C@@]12CO[C@@H]1C[C@H](O)[C@@]1(C)C(=O)[C@H](O)C3=C(C)[C@@H](OC(=O)[C@H](O)[C@@H](NC(=O)OC(C)(C)C)c4ccccc4)C[C@@](O)([C@@H](OC(=O)c4ccccc4)[C@H]21)C3(C)C
lestaurtinib, 4 nM: C[C@]12O[C@H](C[C@]1(O)CO)n1c3ccccc3c3c4c(c5c6ccccc6n2c5c31)CNC4=O
FK866, 10 nM: O=C(/C=C/c1cccnc1)NCCCCC1CCN(C(=O)c2ccccc2)CC1
stibogluconate, 2000 nM: O=C(O)[C@@H]1[O][Sb](=[O])([O][Sb]2(=[O])[O][C@H]([C@H](O)CO)[C@H](O)[C@H](C(=O)O)[O]2)[O][C@H]([C@H](O)CO)[C@@H]1O (some centres undefined)
GSK0660, 1000 nM: COC(=O)c1sccc1S(=O)(=O)Nc1ccc(Nc2ccccc2)cc1OC
XAV939, 2000 nM: Oc1nc(-c2ccc(C(F)(F)F)cc2)nc2c1CSCC2
NVP-BEZ235, 4 nM: Cn1c(=O)n(-c2ccc(C(C)(C)C#N)cc2)c2c3cc(-c4cnc5ccccc5c4)ccc3ncc21
TCS401, 1670 nM: O=C(O)C(=O)Nc1sc2c(c1C(=O)O)CCNC2
darinaparsin, 400 nM: C[As](C)SC[C@H](NC(=O)CC[C@H](N)C(=O)O)C(=O)NCC(=O)O
enzastaurin, 800 nM: Cn1cc(C2=C(c3cn(C4CCN(Cc5ccccn5)CC4)c4ccccc34)C(=O)NC2=O)c2ccccc21
fludarabine, 200 nM: Nc1nc(F)nc2c1ncn2[C@@H]1O[C@H](CO)[C@@H](O)[C@@H]1O
nutlin-3, 100 nM: COc1ccc(C2=N[C@@H](c3ccc(Cl)cc3)[C@@H](c3ccc(Cl)cc3)N2C(=O)N2CCNC(=O)C2)c(OC(C)C)c1
ZM336372, 2000 nM: Cc1ccc(NC(=O)c2cccc(N(C)C)c2)cc1NC(=O)c1ccc(O)cc1
PLX4720, 80 nM: CCCS(=O)(=O)Nc1ccc(F)c(C(=O)c2c[nH]c3ncc(Cl)cc23)c1F
OSI-906, 400 nM: C[C@]1(O)C[C@@H](c2nc(-c3ccc4ccc(-c5ccccc5)nc4c3)c3c(N)nccn32)C1
lenalidomide, 1000 nM: Nc1cccc2c1CN(C1CCC(=O)NC1=O)C2=O (centres undefined)
BI-D1870, 200 nM: CC(C)CCN1c2nc(Nc3cc(F)c(O)c(F)c3)ncc2N(C)C(=O)C1C (centres undefined)

| Combination | IPC-298 | 501mel | A375 | MEL-HO | IST-MEL1 | A2058 | LOX IMVI | C32 | LB2518-MEL | A101D |
|---|---|---|---|---|---|---|---|---|---|---|
| darinaparsin + TCS401 | 94.5 | 112 | 90.6 | 114 | 102 | 96.6 | 116 | 95.8 | 108 | 99.2 |
| OSI-906 + lenalidomide | 91.6 | - | 66.0 | 116 | 92.0 | 93.7 | 89.9 | 81.4 | 99.1 | 103 |
| GSK0660 + NVP-BEZ235 | 96.4 | 88.4 | - | 86.9 | 82.2 | 91.6 | 103 | 81.9 | 114 | 93.5 |
| fludarabine + perifosine | 97.3 | - | 20.8 | 101 | 84.0 | 77.2 | 64.2 | 83.4 | 98.7 | 99.2 |
| lestaurtinib + nutlin-3 | 102 | - | 102 | 99.9 | 102 | 98.2 | 69.9 | 96.7 | 88.4 | 92.5 |
| lestaurtinib + VX-702 | 104 | - | 79.5 | 97.5 | 94.6 | 100 | 125 | 97.6 | 84.9 | 98.0 |
| XAV939 + SU6656 | 89.3 | 110 | 108 | 95.0 | 101 | 89.6 | 115 | 87.3 | 103 | 74.2 |
| VX-702 + perifosine | 95.9 | - | 56.4 | 89.0 | 98.1 | 93.7 | 71.8 | 107 | 93.8 | 96.9 |
| FK866 + PLX4720 | 40.4 | - | 95.6 | 46.1 | 69.9 | 107 | 59.5 | 83.4 | 94.8 | 117 |
| GSK0660 + docetaxel | 73.3 | 63.2 | - | 56.0 | 73.6 | 16.3 | 141 | 80.4 | 80.5 | 66.5 |
| SU6656 + KU-0063794 | 105 | 85.8 | 108 | 91.7 | 94.8 | 104 | 124 | 95.4 | 93.4 | 91.4 |
| stibogluconate + enzastaurin | 112 | - | 91.9 | 99.3 | 91.4 | 91.7 | 54.1 | 90.6 | 93.5 | 100 |
| ZM336372 + BI-D1870 | 88.0 | 87.3 | 83.2 | 92.5 | 95.9 | 84.5 | 131 | 105 | 102 | 81.5 |

Values as published with doi:10.1371/journal.pone.0140310, rounded.